Data as given in PMC6019204.
No constants are given. Whether binding was seen depends on the method and setting. Binding seen in cells or lysates may run through a third protein. Some entries that bind do so weakly or less than the wild type.

Sequences of proteins named here, by UniProt entry; tags and fusion partners are left off. A change or cut given only in a name is not applied to a line headed by its entry. A line that says so, or that is headed by a name, gives the form on record, which may keep a tag or linker.
ER-α36 (Estrogen receptor-alpha36) (P03372-4, form named): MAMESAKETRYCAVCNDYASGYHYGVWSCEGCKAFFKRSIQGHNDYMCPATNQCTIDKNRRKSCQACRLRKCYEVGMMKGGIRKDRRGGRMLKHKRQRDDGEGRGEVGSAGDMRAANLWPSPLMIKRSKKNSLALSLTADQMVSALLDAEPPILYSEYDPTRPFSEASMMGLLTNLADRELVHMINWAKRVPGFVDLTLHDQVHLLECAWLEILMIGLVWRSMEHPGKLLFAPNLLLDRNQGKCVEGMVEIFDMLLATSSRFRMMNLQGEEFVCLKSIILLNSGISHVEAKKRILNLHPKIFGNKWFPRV

Key:
[1] = biological target: Human epidermal growth factor receptor-2 (human (endogenous in MCF-7)) (UniProt P04626); test: co-IP; MCF-7 cells treated with or without 5 μg/mL cisplatin for 48 h; lysates incubated with anti-HER-2 or anti-EGFR antibodies or IgG for 1 h at 4 °C, Protein A/G plus-agarose overnight at 4 °C, washed with PBS; precipitates probed with anti-ER-α36 antibody
[2] = biological target: Epidermal growth factor receptor (human (endogenous in MCF-7)) (UniProt P00533); test: as above

**Q.** “ER-α36 (Estrogen receptor-alpha36) (from UniProt P03372-4 1-310)” was tested. Which binding [1] did it give?
**A.** binds

**Q.** And the binding [2]?
**A.** binds
